Test results reported in publication PMC4624580.
No constants are given. Whether binding was seen depends on the method and setting. In cells and extracts the contact can be indirect. Some results given as binding are weak or reduced against the parent protein; the word gives no strength.

Protein sequences, listed by entry. Tags and fused reporters are not part of them. Lines headed by an entry give the natural chain unless they say otherwise; changes in a name come on top.
UniProt P40337: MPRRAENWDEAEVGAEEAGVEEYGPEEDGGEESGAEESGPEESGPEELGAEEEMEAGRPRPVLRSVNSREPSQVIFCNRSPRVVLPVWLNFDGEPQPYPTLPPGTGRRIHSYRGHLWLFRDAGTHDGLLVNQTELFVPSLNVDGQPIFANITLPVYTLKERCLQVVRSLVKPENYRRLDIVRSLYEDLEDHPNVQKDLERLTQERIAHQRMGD
UniProt Q16763: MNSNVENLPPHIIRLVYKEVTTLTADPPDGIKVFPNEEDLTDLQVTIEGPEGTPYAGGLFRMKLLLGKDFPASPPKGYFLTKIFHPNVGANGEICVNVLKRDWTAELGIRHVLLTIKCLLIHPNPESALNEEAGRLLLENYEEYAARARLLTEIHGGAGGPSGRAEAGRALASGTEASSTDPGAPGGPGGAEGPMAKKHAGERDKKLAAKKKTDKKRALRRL

How the values were obtained:
Assay in all cases: pull-down; HEK293T transfected with GST-tagged mutant VHL and/or Flag-UCP, MG132 for 16 h; GST pull-down; bound UCP detected by immunoblot
[1] = target: GST-tagged pVHL V155A, in HEK293T (UniProt P40337)
[2] = target: GST-tagged pVHL Q164R, in HEK293T (UniProt P40337)
[3] = target: GST-tagged pVHL L158Q, in HEK293T (UniProt P40337)

Measured: binding

Flag-UCP (E2-EPF ubiquitin carrier protein), in HEK293T (from UniProt Q16763 1-222) (enzyme)
binds: all assays above
